The text below walks through data of PubChem BioAssay AID1508600 (Functional Genomics Laboratory (NCATS/FGL), 2020).

In all, about 53,000 sequences went through this assay and about 3,700 (7%) were called active.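 How the source made its calls: active means gene knockdowns whose robust z-score for IL-1 alpha signal is at least 2 or at most -2, so actives lie on both sides; inactive means the rest.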 The list shows a part of the results.

A short description of the assay: Components of the Cytosolic LPS Sensing Pathway: Gene Identification via Genome-wide siRNA Screen.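 Further: robust z of the log signal after scaling to non-targeting control siRNA wells of the plate.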 As to conditions: RAW264.7 macrophages, IL-1a HTRF, actives lie on both sides, screened at 100 nM (by protocol), cells primed 5 h with Pam3CSK4 first. The gist of the method: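 RAW264.7; siRNA 100 nM final, RNAiMAX, 48h 37 degrees C; Pam3CSK4 5 h; LipidA + TransIT-TKO 24 h; IL-1a HTRF; CellTiter-Glo viability; robust z vs negative-control median.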
With GCCCAUUAAUGCGUAUUUUTT against Mettl2, the z-score is inactive: 1.22.
For the sequence CCAGGAUUGAUUUAGAAAATT against BC107364, the z-score was inactive: 1.29.
Turning to “GCCUUUUAUACAUGUUUGATT against B130024G19Rik”, the z-score was inactive: -1.55.
As for GGGAGACCAUUGAAGGCAUTT against Gimap8, the figure is inactive: 1.5.
In the case of GGAGAGAAUAAACUCUACUTT against Tas2r130, the z-score is inactive: -0.394.
As for CCCACAUAAAAAACAGUUGTT against Cd274, the figure is inactive: 1.14; as for GCACGGUGGUUCUAAAAGATT against Snw1, inactive: -1.22; as for GGCUACCAUGGACACAUCATT against Magea7-ps, active: -2.31.
Consider CCUCCUGUCGGACAGUGAATT against Fam170a, for which the z-score is inactive: 1.22.
GGAAGAAUGCCUACUGAUATT against Pcmtd1: the z-score is inactive: 0.849.
Regarding GCUAAUCUUCCACUUGUAATT against Fnbp1l, the z-score was inactive: -1.8.
The result for GAGUAUCAUCUCCUUUUCUTT against Olfr395 reads inactive: -0.179.
The result for GCCGAUUUUACAUGUGAUCTT against Klf8 reads inactive: 1.09; that for GGAGAUGAAGGGUAGCAUCTT against Thap11, inactive: 0.999; that for CCAUUGGAUUGGAACUGGATT against Dhx57, inactive: -0.288.
Turning to CCCUUAAAAUACAACGAUCTT against Prnd, the z-score was inactive: -0.183.
On to GCAGCUGCACUAAAGAACGTT against Dlg1, for which the z-score was active: 2.9.
As for GGAAAAAUGGAAACCUAAGTT against Nipal3, the figure is inactive: 1.16; as for GCUGCAUAACUCUUACACATT against Trappc2l, inactive: -0.132.
The result for GCAGAAUUCACCCGAAACUTT against Tnip1 reads inactive: 1.75.
Consider GGUUCUGUACCAUCUUCAGTT against Rab40c, for which the z-score is inactive: -0.78.
The result for GGAGAUGCUCGCUUUUUACTT against Cutal reads inactive: 1.02.
GCCUUGGACUGCUUUGGAUTT against Dync1li1: the z-score is inactive: -0.379.
As for GGUGGUUAGCGAUGAGAAUTT against Pabpc2, the figure is inactive: 0.73; as for GGAGAAGACCAUAAAGAAGTT against Flywch1, inactive: -0.554.
As for GGAGCUUCUAGACUGUACCTT against Lrmp, the figure is active: 2.03; as for GCUUAUACGAAGAUAAUUGTT against Hmgb1, inactive: 0.413.
As for GGUAGAUCAUGGCCAUCCUTT against Ntf5, the z-score is active: 2.04.
The result for “GGAGGAACGGAAAAAGGUUTT against 1700088E04Rik” reads inactive: -1.07.
The result for GCAACAACUACGCAUGCUCTT against Snap25 reads inactive: -0.188; that for GGUCGUCCCAUCAAUGUGCTT against Cpa1, inactive: -0.543.
Take GCAAUGGAAUUCUCGUGCCTT against Cth: the z-score is inactive: 0.744.
As for CGAAGGAUUCAGAUAAAGUTT against Trim13, the figure is inactive: 1.06; as for GGAACAUCAAGGGAAUUAUTT against Zfp638, active: 2.36.
As for GGUUCGAGAAAACAACUACTT against Trmt5, the figure is inactive: 0.0497; as for GGUUGUCUGUCUGUCCAUCTT against Marchf1, inactive: -1.14.
As for GGAUUUGGUGCAUCUUCCGTT against Olfr609, the figure is inactive: -0.0126; as for GGUUAUUUCUUUGCUUUGCTT against Apod, inactive: 0.929.
Regarding GCAGGCAAAGUUCCUGAUATT against Cdh2, the z-score is inactive: 1.19.
As for GGUGUUAUUUUACACAAAGTT against Gla, the figure is inactive: 1.21; as for GGUUUUGCAUAAGAUCAUUTT against Rrp1, inactive: -0.709; as for GGCAUCGGGAGUUCCAAUUTT against St18, inactive: 1.33.
The result for GGAAUUAGAAAAAGUUUCCTT against Ddx58 reads inactive: 0.551; that for GGUUCUGUUCCAGUUUUAATT against Il21, inactive: 1.19; that for GCCUGAGAAGAUUAUACCATT against Inpp5f, inactive: 0.803.
As for GGGAAUUAGGGCUCAAUGATT against Rbm41, the figure is inactive: -0.132; as for CGGUAGUCUUGUGUGUUGGTT against Rps27, inactive: 0.63.
Regarding CCUUCUGCGGCUCAGUCUATT against Bach2os, the z-score was inactive: -0.199.
On to GGCCAACUUCCUUUUUAAATT against Tomm40, for which the z-score is inactive: -0.0619.
On to CCAGACAUCGUGCUUUACATT against Chrna3, for which the z-score was inactive: 1.42.
For the sequence GCUUAAAUAGCACAGAUUUTT against Mfsd11, the z-score was inactive: 0.187.
The result for GGAGAUUGCAUCCUACCUGTT against Camta2 reads inactive: 0.829.
Consider GGAUGUGAAGCAGUUCUAUTT against Cd81, for which the z-score was inactive: -0.179.
As for GCUUCUAGGGACCUAUUAATT against Dhx30, the figure is inactive: -0.0854.
As for GGAGCUAGAGCUGAAGGAUTT against Ifi27l2b, the figure is inactive: 0.778.
As for CCUGCUUCGAAAGAUCUCCTT against Serpina10, the figure is inactive: 0.541; as for GGCAUUCAGAAAUCCAGUATT against Zdhhc2, inactive: -0.942; as for AUGAAAACCAUUCCCAAUUTT against Olfr435, active: 5.22.
Regarding CGGCCACUAUAUGACAUUATT against Upk3b, the z-score was inactive: -0.12.
For the sequence GGAUGAGAUGGGAAUUGUATT against Otor, the z-score is inactive: 0.0183.
The result for GGGAGAACACAAACAGAAATT against Dab1 reads inactive: 1.1; that for GCCAUAAGGCAGAAUCCAATT against P4htm, inactive: -1.42.
The result for CCUAAGUUAUUGUUAACUGTT against Gata2 reads inactive: 0.661; that for GGUUGUCCGGAUUGCUUGUTT against Olfr734, inactive: -0.502.
As for GGAUAGCAACCAGUUUCAUTT against Mvd, the figure is inactive: -0.832; as for GCUCUGUCUUAAGAGACUATT against Smo, active: 2.39.
Consider GGCUGUGGAUAAAGCUAAUTT against Gpn2, for which the z-score was inactive: 0.311.
GGGAAAGAUAAGCUCAAGGTT against Sh2d2a: the z-score was inactive: 1.32.
The result for GGACAAAGAAUUUCAACAATT against Gsg1 reads inactive: -1.25.
Turning to GGACGAUUGCCAUAUGAACTT against Ice2, the z-score is inactive: -0.99.
Take CCGGCAGAAUAAGAAAGUATT against Gigyf2: the z-score is inactive: -1.41.
For GCCAUGUUUCUGAGAACUUTT against Slc27a3, the z-score was inactive: 0.55.
The result for GGCAAAGUGGUAGAAAAAATT against Neurl3 reads inactive: 0.555; that for GCUAAAUUCUUUCCUGAAGTT against Rdx, inactive: -1; that for CGUACUCUUUCUUUAAUCCTT against Umod, inactive: -0.622.
As for GCGGACAUGAGUUUGAAUGTT against Bnipl, the figure is inactive: -0.858; as for GCUGUCCACUGCUUAAAUCTT against Isyna1, inactive: -0.982; as for GGAGAACAAGUUGUCUGUCTT against Olfr118, inactive: -1.16.
As for GGCCAAAUGGAAUAAGAAGTT against Wdr59, the figure is inactive: 0.774; as for GGUCAUACAUUUGUCAUCATT against Bend7, inactive: -0.336.
For GGUGUUAAUCCAGUUCAAUTT against Bbs12, the z-score is active: 2.26.
As for GGAGCACAGUUUUGGUGCUTT against Olfr576, the z-score is inactive: 1.82.
Turning to GCCUCGGGUAGUGAAGUCUTT against Zc3h3, the z-score is inactive: -0.18.
The result for GGCUGUGGUGAACCUAGACTT against Fcgr4 reads inactive: -1.87; that for GCAUUCUAAUCUCUCAUAATT against Krtap4-13, inactive: 1.79; that for UGUCUGGAAACCAACAAGGTT against Prb1, inactive: 0.244.
Turning to CCUCAUCCAACAUACCUAUTT against Olfr665, the z-score is inactive: -0.665.
The result for GGGAGCUAGAUCUUUCAUCTT against Lrtm1 reads inactive: -0.0969; that for GGGUGAAGAGAGAUGAAAATT against Krt82, inactive: 1.64; that for GGCUAUUCCGCAUUCUACGTT against Ldah, inactive: -0.576.
Regarding GGGUCUCAUGAAGAAAUUUTT against Pcgf5, the z-score was inactive: -0.772.
As for CGUAUAACUAAUGAUGCCATT against Snap23, the figure is inactive: -0.189.
As for GGACUAUGGGUGCACCAAUTT against Lat2, the figure is inactive: -1.2; as for GGAGAUUAACCCACAAACUTT against Rps6ka3, inactive: 1.99.
For the sequence CCAACCUGCUUGCCAAUUGTT against Rubcnl, the z-score is inactive: -1.7.
Consider CGAAGUCUAGCAGAACUCUTT against Kcne1l, for which the z-score was inactive: 0.521.
The result for GCUAAACCUACAAUUGAUUTT against Ccdc117 reads inactive: -0.834.
With GGGAUCUUUCCAGAGUUUGTT against Prp15, the z-score was inactive: 1.05.
As for GGUCACCAAGCAACACAAUTT against Fen1, the figure is active: 2.56.
Regarding GGAGAAACCUAAAGACAUATT against Mocs2, the z-score was inactive: 0.224.
As for GCCAAAGUAGUUGAACCUUTT against Cibar1, the figure is inactive: -0.48.
In the case of CCAAUCACCAGAGACUAACTT against Slain1, the z-score is active: 2.81.
As for CCUUGUCUGGCAACAUCGATT against Cpt1c, the figure is inactive: -0.33.
As for CGAAGCCAAUAAAUGCAGCTT against Pmis2, the figure is inactive: 0.00297; as for CCAAGUGGAUCCCGCUUGUTT against Rhot2, inactive: -0.917.
As for GGGCUCUGAAUUGAAGAAATT against Ralgps2, the figure is inactive: -0.163; as for GGUGCAGGACCAUUUCCAUTT against Slc10a6, active: 3.25.
Take GCUGAACUUAUCAACCAGATT against Nacc1: the z-score was inactive: 0.611.
